Values quoted from earlier work, collected in US20050233970A1, “Methods for treating long QT syndrome” (priority 2004, published 2005).

Tested on: QT interval
Settings: literature (Pratt et al. 1996, 1999); cited from earlier work

In the case of `CC(C)(C(=O)O)c1ccc(C(O)CCCN2CCC(C(O)(c3ccccc3)c3ccccc3)CC2)cc1` (stereo not shown) [fexofenadine], the “effect on QT interval / QTc” value is given as “no effect”.
